These are yes or no findings as the source states them, for the method shown. Binding seen in cells or lysates may run through a third protein. Some binding calls cover weakened binding; strength is not graded here.

Chains of the proteins cited; added tags and fusions are not shown.
UniProt Q00416: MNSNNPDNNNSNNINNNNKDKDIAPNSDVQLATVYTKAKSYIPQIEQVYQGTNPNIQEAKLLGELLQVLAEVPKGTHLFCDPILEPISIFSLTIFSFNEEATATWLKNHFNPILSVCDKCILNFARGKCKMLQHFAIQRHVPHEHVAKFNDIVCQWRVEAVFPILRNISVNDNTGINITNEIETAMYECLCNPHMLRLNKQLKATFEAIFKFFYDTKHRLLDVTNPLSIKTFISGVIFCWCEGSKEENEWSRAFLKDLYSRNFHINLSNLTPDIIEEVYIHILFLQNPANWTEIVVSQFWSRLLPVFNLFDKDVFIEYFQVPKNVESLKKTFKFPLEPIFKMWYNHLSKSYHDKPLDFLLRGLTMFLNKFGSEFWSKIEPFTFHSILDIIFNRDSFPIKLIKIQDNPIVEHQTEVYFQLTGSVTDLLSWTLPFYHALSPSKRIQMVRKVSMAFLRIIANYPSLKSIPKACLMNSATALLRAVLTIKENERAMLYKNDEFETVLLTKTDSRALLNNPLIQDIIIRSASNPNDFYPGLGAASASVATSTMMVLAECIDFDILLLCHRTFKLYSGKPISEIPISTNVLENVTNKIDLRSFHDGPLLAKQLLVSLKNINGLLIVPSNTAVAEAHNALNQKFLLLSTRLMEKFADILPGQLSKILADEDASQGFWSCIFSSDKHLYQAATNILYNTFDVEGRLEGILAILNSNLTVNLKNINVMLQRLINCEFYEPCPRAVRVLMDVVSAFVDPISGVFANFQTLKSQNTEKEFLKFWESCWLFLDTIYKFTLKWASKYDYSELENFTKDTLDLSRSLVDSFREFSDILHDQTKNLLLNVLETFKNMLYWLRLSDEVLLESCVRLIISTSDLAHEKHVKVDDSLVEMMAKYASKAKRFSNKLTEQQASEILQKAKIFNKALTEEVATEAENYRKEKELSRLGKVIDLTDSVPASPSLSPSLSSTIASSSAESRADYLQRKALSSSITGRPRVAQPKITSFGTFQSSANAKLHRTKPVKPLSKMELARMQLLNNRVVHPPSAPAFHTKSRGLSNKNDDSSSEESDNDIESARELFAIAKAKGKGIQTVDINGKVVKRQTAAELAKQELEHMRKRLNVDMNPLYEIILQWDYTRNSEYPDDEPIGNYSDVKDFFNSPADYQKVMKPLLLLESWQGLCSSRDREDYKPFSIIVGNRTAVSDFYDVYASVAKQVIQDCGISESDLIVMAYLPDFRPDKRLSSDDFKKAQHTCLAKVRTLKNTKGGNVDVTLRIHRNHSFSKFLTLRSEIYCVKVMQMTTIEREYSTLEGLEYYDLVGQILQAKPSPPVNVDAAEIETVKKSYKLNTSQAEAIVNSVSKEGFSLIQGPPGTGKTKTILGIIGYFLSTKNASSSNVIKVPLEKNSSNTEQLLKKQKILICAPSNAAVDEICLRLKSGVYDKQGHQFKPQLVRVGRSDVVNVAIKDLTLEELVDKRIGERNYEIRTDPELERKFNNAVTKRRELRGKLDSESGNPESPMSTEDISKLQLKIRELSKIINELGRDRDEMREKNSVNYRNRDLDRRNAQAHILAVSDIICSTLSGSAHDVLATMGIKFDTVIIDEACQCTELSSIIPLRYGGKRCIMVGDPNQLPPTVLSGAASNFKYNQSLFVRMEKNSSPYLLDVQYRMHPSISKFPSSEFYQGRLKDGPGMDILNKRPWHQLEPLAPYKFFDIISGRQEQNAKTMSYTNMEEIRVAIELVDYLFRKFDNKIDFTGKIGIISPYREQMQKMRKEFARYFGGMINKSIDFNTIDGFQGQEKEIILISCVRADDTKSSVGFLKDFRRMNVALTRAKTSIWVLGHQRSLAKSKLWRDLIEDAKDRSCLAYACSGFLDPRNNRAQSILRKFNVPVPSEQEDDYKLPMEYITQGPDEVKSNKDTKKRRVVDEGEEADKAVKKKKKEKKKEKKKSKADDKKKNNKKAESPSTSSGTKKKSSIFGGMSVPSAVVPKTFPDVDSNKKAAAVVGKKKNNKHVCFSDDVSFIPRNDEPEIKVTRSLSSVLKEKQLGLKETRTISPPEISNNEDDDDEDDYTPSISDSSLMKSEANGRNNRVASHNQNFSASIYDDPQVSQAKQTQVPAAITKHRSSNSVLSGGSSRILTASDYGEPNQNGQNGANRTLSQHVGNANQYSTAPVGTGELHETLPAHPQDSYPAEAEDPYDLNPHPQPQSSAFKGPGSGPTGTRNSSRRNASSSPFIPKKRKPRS

Experiment [1] addresses T1, Nrd1 (S. cerevisiae (endogenous in yeast cells)) (UniProt P53617).
T1 sequence: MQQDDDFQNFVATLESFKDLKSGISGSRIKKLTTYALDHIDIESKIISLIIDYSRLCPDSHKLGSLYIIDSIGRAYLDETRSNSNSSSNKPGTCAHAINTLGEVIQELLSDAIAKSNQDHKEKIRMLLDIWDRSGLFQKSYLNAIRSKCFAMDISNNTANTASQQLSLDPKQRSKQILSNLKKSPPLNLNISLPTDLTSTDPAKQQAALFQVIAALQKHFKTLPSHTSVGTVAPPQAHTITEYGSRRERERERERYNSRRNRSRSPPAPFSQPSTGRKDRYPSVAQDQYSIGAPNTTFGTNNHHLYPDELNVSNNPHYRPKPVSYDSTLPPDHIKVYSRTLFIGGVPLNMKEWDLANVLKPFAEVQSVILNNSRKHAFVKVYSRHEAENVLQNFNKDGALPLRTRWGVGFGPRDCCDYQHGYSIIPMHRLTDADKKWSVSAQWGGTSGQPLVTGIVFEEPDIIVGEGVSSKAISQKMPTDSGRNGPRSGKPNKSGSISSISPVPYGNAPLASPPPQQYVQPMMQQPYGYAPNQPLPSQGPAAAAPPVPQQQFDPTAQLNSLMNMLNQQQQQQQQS
The experiment can be described thus: co-IP; whole cell lysate of wildtype or nab3-K363R yeast; polyclonal anti-Nrd1 antibody on Protein A-Sepharose, 2 h at 4°C; lysis and wash buffer 50 mM Na-HEPES pH 7.5, 200 mM NaOAc, 0.25% NP-40; immunoblot for Nrd1, Nab3, Sen1, Pgk1; no-antibody control. Background: A western blot detects proteins with antibodies after separation by electrophoresis.

For experiment [2], the target named is T2, Nab3-K363R (S. cerevisiae) (UniProt P38996).
T2 sequence: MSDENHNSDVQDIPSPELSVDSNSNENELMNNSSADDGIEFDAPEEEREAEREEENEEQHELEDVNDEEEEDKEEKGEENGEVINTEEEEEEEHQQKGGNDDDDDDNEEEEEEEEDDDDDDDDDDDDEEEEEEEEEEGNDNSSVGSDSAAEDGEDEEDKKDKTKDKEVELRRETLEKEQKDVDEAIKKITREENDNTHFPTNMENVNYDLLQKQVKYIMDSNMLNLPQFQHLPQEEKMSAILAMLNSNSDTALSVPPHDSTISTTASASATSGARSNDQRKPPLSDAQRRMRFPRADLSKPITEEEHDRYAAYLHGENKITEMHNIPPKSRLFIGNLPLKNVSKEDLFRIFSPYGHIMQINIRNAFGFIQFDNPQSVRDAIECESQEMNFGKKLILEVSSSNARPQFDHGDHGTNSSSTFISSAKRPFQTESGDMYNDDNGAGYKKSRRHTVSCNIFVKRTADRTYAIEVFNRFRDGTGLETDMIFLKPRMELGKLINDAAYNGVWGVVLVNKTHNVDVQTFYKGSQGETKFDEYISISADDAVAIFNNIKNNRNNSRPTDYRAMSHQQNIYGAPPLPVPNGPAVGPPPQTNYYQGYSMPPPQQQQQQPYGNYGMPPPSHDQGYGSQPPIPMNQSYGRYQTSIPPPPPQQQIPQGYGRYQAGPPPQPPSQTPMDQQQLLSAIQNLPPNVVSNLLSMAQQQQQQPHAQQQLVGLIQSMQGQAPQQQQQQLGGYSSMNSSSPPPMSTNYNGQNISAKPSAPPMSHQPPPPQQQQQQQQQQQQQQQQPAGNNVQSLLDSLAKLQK
The experiment can be described thus: co-IP; reciprocal: whole cell lysate of wildtype or nab3-K363R yeast; monoclonal anti-Nab3 antibody on Protein G-Sepharose, 2 h at 4°C; same buffers; immunoblot.

Experiment [3] addresses T3, Nab3 (wildtype) (S. cerevisiae) (UniProt P38996).
T3 sequence: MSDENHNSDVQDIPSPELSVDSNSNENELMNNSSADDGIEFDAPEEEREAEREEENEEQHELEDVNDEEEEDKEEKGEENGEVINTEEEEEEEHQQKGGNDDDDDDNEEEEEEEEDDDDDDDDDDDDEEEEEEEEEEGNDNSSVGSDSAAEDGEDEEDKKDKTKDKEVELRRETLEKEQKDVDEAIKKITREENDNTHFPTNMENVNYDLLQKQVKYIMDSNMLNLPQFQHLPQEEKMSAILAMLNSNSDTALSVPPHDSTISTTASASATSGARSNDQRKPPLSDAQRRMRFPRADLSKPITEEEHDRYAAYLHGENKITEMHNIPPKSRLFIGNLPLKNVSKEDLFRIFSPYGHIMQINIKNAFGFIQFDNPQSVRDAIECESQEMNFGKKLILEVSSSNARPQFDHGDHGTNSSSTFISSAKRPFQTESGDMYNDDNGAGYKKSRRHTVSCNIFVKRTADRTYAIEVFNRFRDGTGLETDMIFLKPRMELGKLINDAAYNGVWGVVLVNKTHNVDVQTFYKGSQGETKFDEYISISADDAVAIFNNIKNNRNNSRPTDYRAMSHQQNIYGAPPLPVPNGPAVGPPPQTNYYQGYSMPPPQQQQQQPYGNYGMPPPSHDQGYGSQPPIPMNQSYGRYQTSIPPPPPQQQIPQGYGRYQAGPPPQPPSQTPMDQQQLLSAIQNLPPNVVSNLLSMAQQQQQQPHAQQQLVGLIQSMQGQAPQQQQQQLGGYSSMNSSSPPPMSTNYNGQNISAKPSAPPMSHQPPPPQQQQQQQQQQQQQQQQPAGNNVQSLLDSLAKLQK
The experiment is described as above.

Take Sen1 (from UniProt Q00416 1-2231): the binding result in experiment [1] is recorded as “binds”.

B1: Nrd1 (protein, UniProt P53617 1-575)
chain: MQQDDDFQNFVATLESFKDLKSGISGSRIKKLTTYALDHIDIESKIISLIIDYSRLCPDSHKLGSLYIIDSIGRAYLDETRSNSNSSSNKPGTCAHAINTLGEVIQELLSDAIAKSNQDHKEKIRMLLDIWDRSGLFQKSYLNAIRSKCFAMDISNNTANTASQQLSLDPKQRSKQILSNLKKSPPLNLNISLPTDLTSTDPAKQQAALFQVIAALQKHFKTLPSHTSVGTVAPPQAHTITEYGSRRERERERERYNSRRNRSRSPPAPFSQPSTGRKDRYPSVAQDQYSIGAPNTTFGTNNHHLYPDELNVSNNPHYRPKPVSYDSTLPPDHIKVYSRTLFIGGVPLNMKEWDLANVLKPFAEVQSVILNNSRKHAFVKVYSRHEAENVLQNFNKDGALPLRTRWGVGFGPRDCCDYQHGYSIIPMHRLTDADKKWSVSAQWGGTSGQPLVTGIVFEEPDIIVGEGVSSKAISQKMPTDSGRNGPRSGKPNKSGSISSISPVPYGNAPLASPPPQQYVQPMMQQPYGYAPNQPLPSQGPAAAAPPVPQQQFDPTAQLNSLMNMLNQQQQQQQQS
Regarding B1, the binding result in experiment [2] and in experiment [3] was “binds” throughout.

B2: Nab3 (wildtype) (protein, UniProt P38996 1-802)
chain: MSDENHNSDVQDIPSPELSVDSNSNENELMNNSSADDGIEFDAPEEEREAEREEENEEQHELEDVNDEEEEDKEEKGEENGEVINTEEEEEEEHQQKGGNDDDDDDNEEEEEEEEDDDDDDDDDDDDEEEEEEEEEEGNDNSSVGSDSAAEDGEDEEDKKDKTKDKEVELRRETLEKEQKDVDEAIKKITREENDNTHFPTNMENVNYDLLQKQVKYIMDSNMLNLPQFQHLPQEEKMSAILAMLNSNSDTALSVPPHDSTISTTASASATSGARSNDQRKPPLSDAQRRMRFPRADLSKPITEEEHDRYAAYLHGENKITEMHNIPPKSRLFIGNLPLKNVSKEDLFRIFSPYGHIMQINIKNAFGFIQFDNPQSVRDAIECESQEMNFGKKLILEVSSSNARPQFDHGDHGTNSSSTFISSAKRPFQTESGDMYNDDNGAGYKKSRRHTVSCNIFVKRTADRTYAIEVFNRFRDGTGLETDMIFLKPRMELGKLINDAAYNGVWGVVLVNKTHNVDVQTFYKGSQGETKFDEYISISADDAVAIFNNIKNNRNNSRPTDYRAMSHQQNIYGAPPLPVPNGPAVGPPPQTNYYQGYSMPPPQQQQQQPYGNYGMPPPSHDQGYGSQPPIPMNQSYGRYQTSIPPPPPQQQIPQGYGRYQAGPPPQPPSQTPMDQQQLLSAIQNLPPNVVSNLLSMAQQQQQQPHAQQQLVGLIQSMQGQAPQQQQQQLGGYSSMNSSSPPPMSTNYNGQNISAKPSAPPMSHQPPPPQQQQQQQQQQQQQQQQPAGNNVQSLLDSLAKLQK
In the case of B2, the binding result in experiment [1] is “binds”.

B3: Nab3-K363R (protein, UniProt P38996 1-802)
chain: MSDENHNSDVQDIPSPELSVDSNSNENELMNNSSADDGIEFDAPEEEREAEREEENEEQHELEDVNDEEEEDKEEKGEENGEVINTEEEEEEEHQQKGGNDDDDDDNEEEEEEEEDDDDDDDDDDDDEEEEEEEEEEGNDNSSVGSDSAAEDGEDEEDKKDKTKDKEVELRRETLEKEQKDVDEAIKKITREENDNTHFPTNMENVNYDLLQKQVKYIMDSNMLNLPQFQHLPQEEKMSAILAMLNSNSDTALSVPPHDSTISTTASASATSGARSNDQRKPPLSDAQRRMRFPRADLSKPITEEEHDRYAAYLHGENKITEMHNIPPKSRLFIGNLPLKNVSKEDLFRIFSPYGHIMQINIRNAFGFIQFDNPQSVRDAIECESQEMNFGKKLILEVSSSNARPQFDHGDHGTNSSSTFISSAKRPFQTESGDMYNDDNGAGYKKSRRHTVSCNIFVKRTADRTYAIEVFNRFRDGTGLETDMIFLKPRMELGKLINDAAYNGVWGVVLVNKTHNVDVQTFYKGSQGETKFDEYISISADDAVAIFNNIKNNRNNSRPTDYRAMSHQQNIYGAPPLPVPNGPAVGPPPQTNYYQGYSMPPPQQQQQQPYGNYGMPPPSHDQGYGSQPPIPMNQSYGRYQTSIPPPPPQQQIPQGYGRYQAGPPPQPPSQTPMDQQQLLSAIQNLPPNVVSNLLSMAQQQQQQPHAQQQLVGLIQSMQGQAPQQQQQQLGGYSSMNSSSPPPMSTNYNGQNISAKPSAPPMSHQPPPPQQQQQQQQQQQQQQQQPAGNNVQSLLDSLAKLQK
In the case of B3, the binding result in experiment [1] is on record as “binds”.

Values taken from PMC7102954, “A crucial RNA-binding lysine residue in the Nab3 RRM domain undergoes SET1 and SET3-responsive methylation”.
